# Source: the supplement of paper PMC7238544
# Counter-ions that a name gives are not always drawn. ± gives the standard deviation of the averaged measurements. This is one part of the list. The data scatter; read single values as rough.
# How the values were obtained:
# [1] = test system: hAMSC donor 1; assay: Hoechst total cell count ratio vs vehicle control; higher = more cells (less toxicity)
# [2] = test system: hAMSC donor 2; assay: as above
# [3] = test system: hAMSC donor 2; assay: transgenic luciferase activity (RLU/mg protein) fold change vs vehicle control (ratio); higher = more transgene expression
# [4] = test system: hAMSC donor 1; assay: transfection efficiency (EGFP+ cells / Hoechst count) fold change vs vehicle control (ratio); higher = enhanced transfection
# [5] = test system: hAMSC donor 2; assay: as above
# [6] = test system: hAMSC donor 1; assay: transgenic luciferase activity (RLU/mg protein) fold change vs vehicle control (ratio); hAMSC are human adipose-derived mesenchymal stem cells given an EGFP-luciferase plasmid by lipofection; higher = more transgene expression
# [7] = priming compound concentration 0.2 µM
# [8] = priming compound concentration 1.7 µM
# [9] = priming compound concentration 13 µM
Compound,"Hoechst total cell count ratio [1, 7]","Hoechst total cell count ratio [1, 8]","Hoechst total cell count ratio [1, 9]","Hoechst total cell count ratio [2, 7]","Hoechst total cell count ratio [2, 8]","Hoechst total cell count ratio [2, 9]","transgenic luciferase activity [3, 9]","transfection efficiency [4, 7]","transfection efficiency [4, 8]","transfection efficiency [4, 9]","transfection efficiency [5, 7]","transfection efficiency [5, 8]","transfection efficiency [5, 9]","transgenic luciferase activity [6, 9]","transgenic luciferase activity [3, 8]","transgenic luciferase activity [6, 8]"
NC1CCN(c2nc3c(cc2F)c(=O)c(C(=O)O)cn3-c2ccc(F)cc2F)C1 (configuration not stated) [Tosufloxacin tosilate],1.35 ± 0.18,1.12 ± 0.12,1.35 ± 0.31,1.24 ± 0.21,1.19 ± 0.064,1.02 ± 0.076,0.665 ± 0.038,1.1 ± 0.17,1.21 ± 0.24,1.04 ± 0.37,0.946 ± 0.17,1.29 ± 0.098,1.01 ± 0.19,,,
CC(Cc1ccccc1)(NC(=O)CN)c1ccccc1 (configuration not stated) [Remacemide hydrochloride],1.31 ± 0.099,1.2 ± 0.1,1.38 ± 0.21,1.27 ± 0.11,1.08 ± 0.2,1.23 ± 0.076,,0.934 ± 0.45,0.83 ± 0.13,0.885 ± 0.15,0.858 ± 0.18,1.31 ± 0.35,1.01 ± 0.22,1.02 ± 0.3,,
NC[C@H]1CC[C@H](C(=O)Oc2ccc(CCC(=O)O)cc2)CC1 [Cetraxate hydrochloride],1.11 ± 0.13,1.38 ± 0.14,1.01 ± 0.043,1.28 ± 0.044,1.25 ± 0.061,1.02 ± 0.1,0.518 ± 0.066,0.595 ± 0.23,0.866 ± 0.19,1.38 ± 0.36,0.965 ± 0.046,1.09 ± 0.048,1.18 ± 0.35,,,
CN(C)CCC[C@@]1(c2ccc(F)cc2)OCc2cc(C#N)ccc21 [Escitalopram oxalate],1.62 ± 0.18,1.44 ± 0.031,1.52 ± 0.26,1.2 ± 0.14,1.26 ± 0.11,1.57 ± 0.23,,0.85 ± 0.29,1.2 ± 0.065,0.936 ± 0.055,0.927 ± 0.16,0.998 ± 0.25,0.979 ± 0.13,,0.41 ± 0.018,
CN1C2CCCC1CC(NC(=O)c1nn(C)c3ccccc13)C2 (configuration not stated) [Granisetron hydrochloride],1.48 ± 0.32,1.3 ± 0.37,1.31 ± 0.083,0.929 ± 0.072,1.04 ± 0.091,1.6 ± 0.25,,1.07 ± 0.3,1.04 ± 0.28,1.17 ± 0.089,1.11 ± 0.072,1.26 ± 0.044,0.914 ± 0.12,,0.534 ± 0.013,
CCCN1CCCC[C@H]1C(=O)Nc1c(C)cccc1C [Ropivacaine hydrochloride],0.97 ± 0.15,1.02 ± 0.12,1 ± 0.02,1.25 ± 0.071,0.942 ± 0.11,0.915 ± 0.043,0.543 ± 0.24,0.988 ± 0.58,0.887 ± 0.14,1.26 ± 0.4,0.944 ± 0.2,1.43 ± 0.12,1.46 ± 0.1,,,
CSc1nc2cc(Cl)c(Oc3cccc(Cl)c3Cl)cc2[nH]1 [Triclabendazole],1.18 ± 0.28,1.05 ± 0.056,1.11 ± 0.14,0.954 ± 0.1,1.25 ± 0.12,1.31 ± 0.11,,1.15 ± 0.36,1.31 ± 0.054,0.662 ± 0.21,1.44 ± 0.3,1.02 ± 0.19,0.924 ± 0.11,0.961 ± 0.5,,
Cc1c(O)cccc1C(=O)N[C@@H](CSc1ccccc1)[C@H](O)CN1C[C@H]2CCCC[C@H]2C[C@H]1C(=O)NC(C)(C)C [Nelfinavir mesylate],1.59 ± 0.2,1.45 ± 0.13,1.33 ± 0.099,1.06 ± 0.14,1.06 ± 0.15,1.16 ± 0.093,,1.17 ± 0.33,1.18 ± 0.28,0.861 ± 0.24,1.26 ± 0.24,1.11 ± 0.26,1.03 ± 0.053,,0.586 ± 0.088,
CCCCC(=O)N(Cc1ccc(-c2ccccc2-c2nnn[nH]2)cc1)[C@H](C(=O)O)C(C)C [Valsartan],1.58 ± 0.28,1.07 ± 0.14,1.28 ± 0.49,1.26 ± 0.25,1.35 ± 0.11,1.03 ± 0.042,0.735 ± 0.069,0.698 ± 0.15,1.17 ± 0.35,1.23 ± 0.18,0.948 ± 0.16,1.03 ± 0.055,0.926 ± 0.22,,,
N=C(N)NC(=O)c1nc(Cl)c(N)nc1N [Amiloride hydrochloride hydrate],1.48 ± 0.2,1.27 ± 0.14,1.36 ± 0.061,1.22 ± 0.074,1.2 ± 0.065,1.49 ± 0.065,,1.07 ± 0.3,1.26 ± 0.36,1.04 ± 0.11,0.913 ± 0.21,1.14 ± 0.085,1.14 ± 0.11,,0.53 ± 0.089,
CC(C)(C)NCC(O)c1ccc(O)c(CO)c1 (configuration not stated) [Salbutamol sulfate],1.1 ± 0.32,1.53 ± 0.09,1.4 ± 0.25,0.86 ± 0.23,1.1 ± 0.034,0.961 ± 0.067,1.12 ± 0.12,1.05 ± 0.43,0.629 ± 0.16,0.904 ± 0.34,0.972 ± 0.25,0.951 ± 0.093,0.993 ± 0.22,,,
CCCCCNC(=N)N/N=C/c1c[nH]c2ccc(OC)cc12 [Tegaserod maleate],1.46 ± 0.26,1.22 ± 0.13,0.316 ± 0.13,1 ± 0.11,1.02 ± 0.077,0.206 ± 0.027,0.0159 ± 0.012,0.953 ± 0.25,1.22 ± 0.36,0.0925 ± 0.12,1.04 ± 0.25,1.14 ± 0.17,0.0987 ± 0.05,,,
CCN(CC)CCOC(=O)c1ccc(N)cc1 [Procaine hydrochloride],1.23 ± 0.15,1.17 ± 0.045,1.18 ± 0.085,1.11 ± 0.19,0.943 ± 0.11,1.1 ± 0.27,,1.12 ± 0.18,0.865 ± 0.13,,1.11 ± 0.33,1.32 ± 0.065,1.27 ± 0.19,,,0.703 ± 0.16
O=C1N[C@H](C(=O)O)CS1 [Procysteine],1.46 ± 0.1,1.07 ± 0.2,1.15 ± 0.079,1.28 ± 0.17,1.17 ± 0.13,1.06 ± 0.062,0.67 ± 0.18,0.925 ± 0.041,1.22 ± 0.43,1.12 ± 0.2,0.929 ± 0.2,1.29 ± 0.15,1.01 ± 0.17,,,
CCC(C)(C)C(=O)O[C@H]1C[C@@H](C)C=C2C=C[C@H](C)[C@H](CC[C@@H]3C[C@@H](O)CC(=O)O3)[C@H]21 [Simvastatin],,,,,,,,1.48 ± 0.3,1.3 ± 0.081,1.6 ± 0.34,1.47 ± 0.28,1.12 ± 0.24,1.86 ± 0.33,,,1.04 ± 0.36
Cn1c(NCCN(CCO)CCCc2ccc([N+](=O)[O-])cc2)cc(=O)n(C)c1=O [Nifekalant hydrochloride],1.39 ± 0.17,1.16 ± 0.086,1.33 ± 0.14,1.09 ± 0.3,1.21 ± 0.096,1.59 ± 0.19,,1.04 ± 0.26,1.09 ± 0.16,1.2 ± 0.12,0.808 ± 0.11,1.93 ± 0.71,1.03 ± 0.17,,0.573 ± 0.031,
Cc1onc(-c2c(Cl)cccc2Cl)c1C(=O)N[C@@H]1C(=O)N2[C@@H]1SC(C)(C)[C@@H]2C(=O)O [Dicloxacillin sodium],1.2 ± 0.099,1.34 ± 0.14,1.19 ± 0.053,0.706 ± 0.059,0.947 ± 0.054,0.325 ± 0.037,,1.53 ± 0.43,0.913 ± 0.04,0.942 ± 0.29,1.34 ± 0.018,1.28 ± 0.19,2.42 ± 0.07,,,0.846 ± 0.29
O=C1CN2Cc3c(ccc(Cl)c3Cl)N=C2N1 [Anagrelide hydrochloride],1.6 ± 0.23,1.43 ± 0.13,1.41 ± 0.15,1.21 ± 0.12,1.17 ± 0.014,1.44 ± 0.2,,1.1 ± 0.25,1.1 ± 0.2,1.09 ± 0.17,0.971 ± 0.092,1.06 ± 0.22,1.15 ± 0.12,,0.46 ± 0.099,
CN(CCOc1ccc(NS(C)(=O)=O)cc1)CCc1ccc(NS(C)(=O)=O)cc1 [Dofetilide],1.37 ± 0.12,1.21 ± 0.082,1.16 ± 0.16,0.794 ± 0.33,1.12 ± 0.097,1.06 ± 0.11,,0.763 ± 0.13,1.1 ± 0.34,0.844 ± 0.33,1.36 ± 0.33,1.06 ± 0.18,1.02 ± 0.13,0.68 ± 0.1,,
CNNCc1ccc(C(=O)NC(C)C)cc1 [Procarbazine hydrochloride],1.32 ± 0.18,1.16 ± 0.078,1.257 ± 0.0098,1.28 ± 0.037,1.28 ± 0.19,1.16 ± 0.086,,1.34 ± 0.47,1.04 ± 0.16,0.862 ± 0.19,1.01 ± 0.18,1.08 ± 0.18,1.29 ± 0.24,0.636 ± 0.33,,
CC[C@@H]1C(=O)OC[C@@H]1Cc1cncn1C [Pilocarpine hydrochloride],1.28 ± 0.016,1.29 ± 0.17,1.62 ± 0.49,1.21 ± 0.11,1.33 ± 0.062,0.894 ± 0.06,0.898 ± 0.092,1.13 ± 0.13,1.04 ± 0.15,0.779 ± 0.28,0.888 ± 0.15,1.03 ± 0.22,0.844 ± 0.15,,,
Cc1ccc(O)c([C@H](CCN(C(C)C)C(C)C)c2ccccc2)c1 [Tolterodine tartrate],1.01 ± 0.1,1.49 ± 0.22,1.34 ± 0.034,0.643 ± 0.21,1.15 ± 0.043,1.08 ± 0.051,0.647 ± 0.11,1.14 ± 0.19,0.672 ± 0.27,0.944 ± 0.018,1.38 ± 0.18,0.805 ± 0.045,0.929 ± 0.17,,,
COc1ccc2[nH]c([S@@+]([O-])Cc3ncc(C)c(OC)c3C)nc2c1 [Esomeprazole magnesium],1.61 ± 0.38,1.21 ± 0.19,1.32 ± 0.041,1.07 ± 0.1,1.13 ± 0.053,1.36 ± 0.12,,0.778 ± 0.23,1.16 ± 0.083,1.29 ± 0.36,1.21 ± 0.12,0.935 ± 0.12,1.06 ± 0.2,,0.523 ± 0.023,
O=C(NCCO[N+](=O)[O-])c1cccnc1 [Nicorandil],1.47 ± 0.2,1.22 ± 0.12,1.82 ± 0.17,1.37 ± 0.065,1.05 ± 0.071,1.03 ± 0.024,0.584 ± 0.2,1.04 ± 0.02,1.36 ± 0.25,0.654 ± 0.33,0.848 ± 0.23,1.3 ± 0.2,1.05 ± 0.027,,,
CCc1ccc(CCOc2ccc(CC3SC(=O)NC3=O)cc2)nc1 (configuration not stated) [Pioglitazone hydrochloride],1.52 ± 0.14,1.37 ± 0.17,2.09 ± 0.21,1.05 ± 0.1,1.19 ± 0.071,1.06 ± 0.14,0.998 ± 0.22,1.14 ± 0.037,0.925 ± 0.36,0.478 ± 0.053,1.07 ± 0.18,0.875 ± 0.086,0.949 ± 0.076,,,
CN1CCN2c3ncccc3Cc3ccccc3C2C1 (configuration not stated) [Mirtazapine],1.41 ± 0.18,1.22 ± 0.38,1.66 ± 0.41,1.02 ± 0.11,1.04 ± 0.15,1.05 ± 0.054,0.66 ± 0.18,0.88 ± 0.26,1.18 ± 0.28,0.716 ± 0.21,1.1 ± 0.19,1.24 ± 0.14,0.951 ± 0.11,,,
CC[N+](C)(CC)CCOC(=O)C(O)(c1ccccc1)C1CCCCC1 (configuration not stated) [Oxyphenonium bromide],1.6 ± 0.052,1.3 ± 0.099,2.08 ± 0.17,1.18 ± 0.21,1.17 ± 0.017,0.984 ± 0.017,0.733 ± 0.12,0.833 ± 0.21,0.978 ± 0.19,0.365 ± 0.026,1.06 ± 0.18,1.31 ± 0.18,0.882 ± 0.11,,,
COCC1=C(C(=O)OC(C)OC(=O)OC(C)C)N2C(=O)[C@@H](NC(=O)/C(=N\OC)c3csc(N)n3)[C@H]2SC1 (some centres not stated) [Cefpodoxime proxetil],1.39 ± 0.18,1.23 ± 0.11,1.25 ± 0.27,1.18 ± 0.51,1.17 ± 0.1,1.17 ± 0.43,,0.896 ± 0.16,1.29 ± 0.29,0.837 ± 0.19,1.02 ± 0.35,1.46 ± 0.33,0.911 ± 0.12,1.32 ± 1.3,,

# 2 entries drawn at random from those above:
Compound,"Hoechst total cell count ratio [1, 7]","Hoechst total cell count ratio [1, 8]","Hoechst total cell count ratio [1, 9]","Hoechst total cell count ratio [2, 7]","Hoechst total cell count ratio [2, 8]","Hoechst total cell count ratio [2, 9]","transgenic luciferase activity [3, 9]","transfection efficiency [4, 7]","transfection efficiency [4, 8]","transfection efficiency [4, 9]","transfection efficiency [5, 7]","transfection efficiency [5, 8]","transfection efficiency [5, 9]","transgenic luciferase activity [6, 9]","transgenic luciferase activity [3, 8]","transgenic luciferase activity [6, 8]"
CCCN1CCCC[C@H]1C(=O)Nc1c(C)cccc1C [Ropivacaine hydrochloride],0.97 ± 0.15,1.02 ± 0.12,1 ± 0.02,1.25 ± 0.071,0.942 ± 0.11,0.915 ± 0.043,0.543 ± 0.24,0.988 ± 0.58,0.887 ± 0.14,1.26 ± 0.4,0.944 ± 0.2,1.43 ± 0.12,1.46 ± 0.1,,,
CN(C)CCC[C@@]1(c2ccc(F)cc2)OCc2cc(C#N)ccc21 [Escitalopram oxalate],1.62 ± 0.18,1.44 ± 0.031,1.52 ± 0.26,1.2 ± 0.14,1.26 ± 0.11,1.57 ± 0.23,,0.85 ± 0.29,1.2 ± 0.065,0.936 ± 0.055,0.927 ± 0.16,0.998 ± 0.25,0.979 ± 0.13,,0.41 ± 0.018,
